Construct, isoform or probe ends are uncertain for at least one entry. Negatives hold for the conditions tested.
Tests used:
[1] = molecular target: GAAP-1 mtZ2 second zinc finger Cys/His substituted by Arg (positions not given) (Homo sapiens) (UniProt P15822); assay: EMSA; details: protein translated in vitro; label: 32P
[2] = molecular target: GAAP-1 mtZ1 first zinc finger Cys/His substituted by Arg (positions not given) (Homo sapiens) (UniProt P15822); assay: EMSA; details: protein translated in vitro; label: 32P

## GATCCTCTGGGGATTCCCCATGGA (double strand) [NF-kB-MHC]
[1]
  binding result: no binding
[2]
  binding result: no binding

## AATGCAGGATTCCTCCAAAATGATTTCCAC (double strand) [IPCS-p53 EMSA probe]
[1]
  binding result: no binding
[2]
  binding result: no binding
